Data on 59 compounds can be found in PubChem BioAssay AID2685 (National Center for Advancing Translational Sciences (NCATS), 2010).

Structures are written as SMILES. The list shows a part of the results. Further columns of the screen follow, without active or inactive calls. Most of these compounds were active or inconclusive in the main read-out, so they are no random draw. Words in brackets tell the shape of the fitted curve; partial curves, single points and poor fits give uncertain potencies.

This assay in a line: qHTS Assay for Lipid Storage Modulators in Drosophila S3 Cells.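 On cell number change: cells counted by Cell Tracker Red CMTPX staining in the red channel.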 The conditions noted are these: BODIPY lipid droplet fluorescence, 18-24 h; for cell number change: measured here: cell count max response, cells fed with added oleic acid. The procedure, abridged: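 Drosophila S3 cells got compounds at several concentrations plus oleic acid (400 uM solution). Laser-scanning cytometry with 488 nm excitation read lipid droplets at 500-530 nm and cells at 575-640 nm. Percent activity was relative to 20 uM Triacsin C.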

[1] abbreviates: measured here: cell number channel AC50, cells fed with added oleic acid.
Setting [2] is: measured here: lipid fluorescence (Fed channel) AC50, cells fed with added oleic acid.

For `COC(=O)CCCC1=CC2=C(c3ccccc3)C(=O)C(C)(OC(=O)C3CCCC3)C(=O)C2=CN1Cc1ccc(OC)cc1` (stereo not drawn), the cell number change is -19.3%. Turning to `CCOc1cc(C(=O)Nc2ccc([N+](=O)[O-])cn2)cc(OCC)c1OCC`, the cell number change was -62.4%. For the same compound, the AC50 under setting [1] was 29.1 µM [falling, single point]. Also, under setting [2], the AC50 was 29.1 µM [falling, single point].

`CCOc1ccc(NS(=O)(=O)c2ccc(C(=O)NC3CCC(O)CC3)cc2)cc1` (stereo not drawn): under setting [2], the AC50 was 5.8 µM [falling, single point]. Take `CCCCN(CCCC)NC(=O)c1ccccc1`: the cell number change came to 19.2%. The AC50 under setting [1] is 0.517 µM [falling, single point]. For the same compound, the AC50 under setting [2] was 0.517 µM [falling, single point]. Turning to `Cc1cc(C)cc(N=C2NC(=O)/C(=C/c3cccs3)S2)c1`, the AC50 under setting [1] is 6.51 µM [rising, single point]. In the case of `CCOc1ccc(-c2nc(N)nc(C)c2-c2ccc(Cl)cc2)c(O)c1`, the cell number change is -41.7%. Moreover, the AC50 under setting [1] is 16.4 µM [falling, single point]. Under setting [2], the AC50 was 18.4 µM [falling, single point]. As for `COc1ccccc1N1CCN(CCC(=O)Nc2ccc3c(c2)OCO3)CC1`, the AC50 was 0.058 µM [rising, full curve, poor fit] under setting [1] and 0.058 µM [rising, full curve, poor fit] under setting [2]. `CCC(=O)Nc1c2c(nn1-c1cccc(Cl)c1)CSC2`: the cell number change was found to be 44.5%. Also, under setting [1], the AC50 is 5.8 µM [rising, full curve]. For the same compound, the AC50 under setting [2] was 5.17 µM [rising, full curve]. Take `CSCCC(Nc1nc2ccccc2s1)C(=O)O` (stereo not drawn): the cell number change is -88.7%. Under setting [1], the concentration at half-maximal activity (AC50) was 23.1 µM [falling, partial curve, poor fit]. In addition, under setting [2], the AC50 is 0.206 µM [falling, full curve, poor fit]. For the compound `CCOc1ccc(CCNC(=O)CSc2cc(=O)n(C)c3cc(Cl)ccc23)cc1OCC`, the cell number change came out at 21.5%. The AC50 under setting [1] was 0.146 µM [rising, full curve, poor fit]. Besides, the AC50 under setting [2] is 0.146 µM [rising, full curve, poor fit]. With `O=C(Nc1cccc(S(=O)(=O)N2CCOCC2)c1)c1cn(-c2ccccc2)nc1-c1ccc(F)cc1`, the cell number change was -1.18%. Under setting [2], the AC50 is 6.51 µM [rising, single point]. As for `CSc1nc2c(c(=O)[nH]c(=O)n2C)n1Cc1ccc(Cl)cc1`, the cell number change was -19%. In addition, under setting [2], the AC50 is 0.146 µM [rising, full curve, poor fit].

As for `O=C(O)c1cc2sccc2s1`, the cell number change is -4.35%. The same measure, in the same setting: next, `Cc1ccc(CS(=O)Cc2ccc(C(=O)NC3CCC(C)CC3)o2)cc1` (stereo not drawn): -1.24%. Regarding `CCOC(=O)c1cn(-c2ccc([N+](=O)[O-])cc2)c2cc(Cl)c([N+](=O)[O-])cc2c1=O`, the cell number change is -12.1%. Moreover, under setting [2], the AC50 is 0.0231 µM [falling, full curve, poor fit].

For the compound `O=C(O)CCn1nnc(-c2ccccc2)n1`, the cell number change turned out to be 33.1%. Further, under setting [1], the AC50 is 32.6 µM [rising, single point]. Further, under setting [2], the AC50 was 29.1 µM [rising, single point]. In the case of `COc1ccccc1N1CCN(CC(O)COc2c(OC)cccc2OC)CC1` (stereo not drawn), the cell number change was -22.4%. In addition, the AC50 under setting [2] is 0.58 µM [falling, full curve]. Consider `Cc1ccc(/C=N/N=C2/NC(=O)CS2)o1`, for which the AC50 under setting [2] was 0.291 µM [falling, single point].

As to `COc1ccc(C)cc1-n1nnnc1SCc1cn2ccsc2n1`, the cell number change was -1.9%. On to `O=C(NC(=S)NC1CCS(=O)(=O)C1)c1ccccc1` (stereo not drawn), for which the cell number change stood at 34.1%. For the same compound, the half-maximal activity concentration (AC50) under setting [1] is 7.31 µM [rising, partial curve]. Under setting [2], the AC50 was 0.651 µM [rising, full curve, poor fit].

As for `Cc1ccc(F)cc1NC(=O)COC(=O)COc1ccc(C#N)cc1`, the cell number change is -15.7%. For the same compound, the concentration at half-maximal activity (AC50) under setting [2] was 0.184 µM [falling, full curve, poor fit].

In the case of `Cc1cc(Nc2ccccc2)c2c([N+](=O)[O-])c(C)cc(C)c2n1`, the cell number change was -25.1%. The concentration at half-maximal activity (AC50) under setting [2] is 1.16 µM [falling, full curve]. For the compound `OCC(O)/C=N/Nc1nc(N2CCCCC2)nc(N2CCCCC2)n1` (stereo not drawn), the cell number change is -35.5%. The AC50 under setting [1] was 23.1 µM [falling, single point]. Besides, the AC50 under setting [2] is 18.4 µM [falling, single point].

As to `Cc1ccc(S(=O)(=O)Nc2ccc3c(c2)OCCO3)cc1`, the AC50 under setting [2] is 4.61 µM [falling, single point].

For the compound `O=S(=O)(c1ccc(Nc2ccc3c(c2)OCO3)nc1)N1CCOCC1`, the cell number change worked out at 14.1%.

As for `COc1cc([N+](=O)[O-])cc2sc(NC(=O)C3CC3)nc12`, the cell number change was determined as 31.5%. In the case of `COc1ccc(NC(=O)CC2C(=O)N(c3ccc(F)cc3)C(=S)N2NC(=O)c2ccc(Cl)cc2)cc1` (stereo not drawn), the cell number change was -40.9%. The AC50 under setting [1] was 32.6 µM [falling, single point]. Moreover, under setting [2], the AC50 was 0.103 µM [falling, full curve, poor fit]. Turning to `O=C(CN1CCN(S(=O)(=O)c2ccccc2)CC1)Nc1ccccc1C(=O)NC1CC1`, the cell number change is 25.8%. Moreover, the AC50 under setting [2] is 0.326 µM [rising, full curve, poor fit]. Regarding `CC(C)N1CCc2c(sc(NC(=O)c3ccc(S(=O)(=O)N4CCc5ccccc54)cc3)c2C(N)=O)C1`, the cell number change is -10.7%. Further, the AC50 under setting [2] is 29.1 µM [falling, single point]. On to `Cc1ccc(S(=O)(=O)Nc2ccc3c(c2)nc(CN2CCCC2)n3C)cc1`, for which the AC50 is 0.259 µM [rising, full curve] under setting [1] and 0.259 µM [rising, full curve] under setting [2].

On to `COc1ccc(NC(=O)CCN2CCN(S(=O)(=O)c3ccc(Cl)cc3)CC2)cc1`, for which, under setting [2], the AC50 is 5.17 µM [rising, single point]. On to `CCOC(=O)C1CCN(CCC(=O)Nc2ccc(F)cc2)CC1`, for which the cell number change came out at 24.8%. `CCOC(=O)C(C(=O)OCC)C(Nc1ccccc1)c1ccccc1` (stereo not drawn): the cell number change is -9.84%. Also, the AC50 under setting [2] is 25.9 µM [falling, single point].

As for `COc1cc(Br)c(CC(=O)NC2CC2)cc1OC`, the cell number change was -4.05%.

Regarding `CN1CCN(Cn2cc(/C=C/C(=O)c3ccccc3)c3ccccc32)CC1`, the cell number change is -88.8%. The AC50 under setting [1] is 16.4 µM [falling, partial curve, poor fit]. Moreover, the AC50 under setting [2] was 23.1 µM [falling, single point]. For the compound `CC(=O)c1c(C)[nH]c(C(=O)OCC(=O)Nc2sc3c(c2C#N)CCCC3)c1C`, the cell number change amounted to 29.9%. Under setting [2], the AC50 is 3.26 µM [rising, partial curve]. For `O=C(/C=C/c1ccccc1Cl)c1ccc[nH]1`, the AC50 under setting [2] is 1.84 µM [rising, full curve, poor fit]. Turning to `COc1ccc(CNCCC(c2ccccc2)c2ccc3c(c2)OCO3)cc1` (stereo not drawn), the cell number change was -49.2%. In the case of `C/C(=N\NC(=O)OC(C)(C)C)c1ccccc1Br`, the cell number change came out at 113%. In addition, under setting [1], the AC50 is 6.51 µM [falling, partial curve, poor fit].

`O=C(CSCc1ccc(Cl)cc1)Nc1ccccc1O`: the cell number change is -16.9%. The half-maximal activity concentration (AC50) under setting [2] is 6.51 µM [falling, single point]. For `COc1ccc(NC(=O)N2CCCC2C(=O)Nc2ccc(C)cc2C)cc1` (stereo not drawn), the cell number change was determined as 38%. Under setting [1], the AC50 was 14.6 µM [rising, partial curve]. Take `O=c1c2ccccc2c(/C=N/n2cnnc2)c(O)n1-c1ccccc1`: the AC50 under setting [2] is 6.51 µM [falling, single point]. Consider `O=C(O)CC/C(=C\c1ccc(N2CCCC2)c([N+](=O)[O-])c1)c1nc2ccccc2s1`, for which the cell number change amounted to 23.1%. Besides, under setting [2], the AC50 was 18.4 µM [rising, single point]. Consider `Cc1cccc(CCNC(=O)CCNC(=O)Cn2ccc3ccccc3c2=O)c1`, for which the cell number change was -34.3%. Besides, the AC50 under setting [1] is 9.2 µM [falling, partial curve]. Besides, the AC50 under setting [2] is 10.3 µM [falling, partial curve]. In the case of `Cc1ccc2c(C)c(C(=O)NCCN3CCOC3=O)oc2c1C`, the cell number change was found to be 35.3%. Under setting [1], the AC50 was 35.5 µM [rising, partial curve]. In addition, the AC50 under setting [2] is 17.8 µM [rising, partial curve, poor fit]. Turning to `Cn1c(/C=C/c2ccc([N+](=O)[O-])o2)nc2ccccc2c1=O`, the cell number change was -9.62%. Moreover, the AC50 under setting [2] was 3.26 µM [falling, full curve]. For the compound `COc1cc(C2C(C#N)=C(N)OC3=C2C(=O)CCC3)cc(OC)c1OC(=O)N1CCOCC1` (stereo not drawn), the cell number change is -23.3%. Further, the AC50 under setting [2] was 0.206 µM [falling, full curve].

In the case of `O=C(CN1CCN(S(=O)(=O)c2cccc(Br)c2)CC1)NCCc1cccs1`, the cell number change is -27.1%. The concentration at half-maximal activity (AC50) under setting [1] was 0.82 µM [falling, full curve, poor fit]. Further, the AC50 under setting [2] is 7.31 µM [rising, partial curve]. For `O=C(COC(=O)c1ccccc1[N+](=O)[O-])Nc1cccnc1Cl`, the cell number change worked out at 52.2%. Also, the AC50 under setting [1] is 4.11 µM [rising, partial curve]. Turning to `COc1cccc(C(c2nnnn2C(C)(C)C)N2CCN(C3CCCCC3)CC2)c1OC` (stereo not drawn), the cell number change came to 3.71%. In addition, the AC50 under setting [1] was 0.13 µM [falling, full curve, poor fit]. Regarding `CC(C(=O)NN=C(c1ccccc1)c1ccccc1)N1CCCC1` (stereo not drawn), the cell number change was -18.8%. On to `COc1ccccc1C(=O)N/C(=C/c1cccc([N+](=O)[O-])c1)C(=O)Nc1cccc(C(=O)O)c1`, for which the cell number change worked out at 33.7%. Under setting [1], the AC50 was 5.8 µM [rising, full curve, poor fit]. The AC50 under setting [2] is 4.11 µM [rising, full curve, poor fit]. In the case of `COc1ccccc1NC1=C(C)C(=O)CC1`, the AC50 under setting [2] was 29.1 µM [rising, single point].

For `CC(O)c1c(-c2ccccc2)nn(C)c1Cl` (stereo not drawn), the cell number change was -12.3%. `CC(C(=O)Nc1ccc(N2CCOCC2)cc1)N1C(=O)NC(C)(C)C1=O` (stereo not drawn): the cell number change was 31.5%. Further, the AC50 under setting [1] is 23.1 µM [rising, single point]. On to `COc1cccc(NC(=O)CN2CCN(CC(=O)Nc3ccccc3Cl)CC2)c1`, for which the cell number change was -1.06%. The same measure, in the same setting: next, `CC(C)c1ccc(OCC(=O)NNC(=S)NC(=O)c2cccs2)c(Br)c1`: 10.3%.

For `O=C(O)Cc1ccc(NC(=O)Nc2ccc3c(c2)OCO3)cc1`, the cell number change was -9.41%. In addition, under setting [2], the AC50 was 6.51 µM [falling, single point].

Turning to `CCN1CCN(c2ccc(Nc3ccnc4ccccc34)cc2)CC1`, the cell number change was -55.4%. Besides, the AC50 under setting [1] was 14.6 µM [falling, partial curve]. Besides, the AC50 under setting [2] is 14.6 µM [falling, partial curve].
